From paper PMC9986639
No constants are given. Whether binding was seen depends on the method and setting. In cells and extracts the contact can be indirect. A result given as binding can be weak or reduced; the word gives no strength. Where a sequence is shown, tags or fusion partners need not be part of it.

Biological target: T1, TXN1-6×His (thioredoxin 1) (UniProt P10599)
T1 sequence: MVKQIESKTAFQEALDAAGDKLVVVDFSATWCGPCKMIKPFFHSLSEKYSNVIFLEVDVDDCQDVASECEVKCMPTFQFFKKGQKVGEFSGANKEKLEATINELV
Test: cross-linking; live HEK293T cells transfected with the His-tagged bait, 0.5 mM BVSB or PDES (1 h at 4°C and 2 h at RT, in PBS); lysis in 8 M urea, Ni-NTA, trypsin, SCX fractions; cross-linked peptides identified by LC-MS/MS (pLink2)

binding: binds
Substance: β-tublin (human (endogenous in HEK293T))
